{"source": "the supplement of paper PMC8728848", "binders": {"B1": {"name": "PX14343I-pdi-501-30-501 (Parabacteroides distasonis) (protein)", "chain": "SDQYSTETFWKTKEHASAGIMGCYNALKLWRSLHTMEFDMLTANAMPYNEANGTQAIGKGEHLSTTALIGSLWKNCYVGIGRTNTFIANVGGVDMDESEKAKMVGEAKFLRAFYYLSLVDKFGGVPLIIDAPNADEQAELPRNSKEEVVNQIVKDLEEAAAVLPDTYASSDLGRATKGAALALKARTLLYNSRWAEAAQAAKQVMESGVYQLFNDYRHFFSEDNKYNCEVIFDIEAKLPEYPTDYDQNIWRLNRPAPLKELVDTYLCVDGKTIEESPLYDPTRPYENRDPRLLKSIVCIGYPYLGKTITKEDVATTGFGVKKYTSYEDDVTIPLVERSAFNFILIRYAEVLLTYAEAQNEASGPDQSVYDAINQLRRRPDINMPEVPKGLTKDQMREVIRRERRIELTFEGLYYSDILRWKTAEKENNGMMHNYEGIEVVKRSFNPKRDYLWPIPYNQTVLNPNLEQNPNWD"}}, "assay_in_all_cases": "glycan array binding signal (z-score within array); higher = stronger binding", "conditions_in_all_cases": "glycan notation: IUPAC condensed, linker removed", "key": {"Fuc(a1-3)GlcNAc": {"target": "Fuc(a1-3)GlcNAc", "method_in_brief": "(§1)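 Arrays were curated from the Consortium for Functional Glycomics database, 3228 in total, and kept only where the protein sequence was available. Binding is expressed as a within-array Z-score. This score was averaged across arrays of the same protein sequence at different concentrations or buffers and across linkers, and negative values can be read as non-binding.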"}, "[1]": {"target": "Fuc(a1-3)[Gal(b1-4)]Glc6S", "method_in_brief": "as §1"}, "[2]": {"target": "Fuc(a1-3)[Gal(b1-4)]GlcNAc", "method_in_brief": "as §1"}, "[3]": {"target": "Fuc(a1-3)[Gal(b1-4)]GlcNAc(b1-2)Man", "method_in_brief": "as §1"}, "[4]": {"target": "Fuc(a1-3)[Gal(b1-4)]GlcNAc(b1-2)Man(a1-3)[Fuc(a1-3)[Gal(b1-4)]GlcNAc(b1-2)Man(a1-6)]Man(b1-4)GlcNAc(b1-4)GlcNAc", "method_in_brief": "as §1"}, "[5]": {"target": "Fuc(a1-3)[Gal(b1-4)]GlcNAc(b1-2)Man(a1-3)[Fuc(a1-3)[Gal(b1-4)]GlcNAc(b1-2)Man(a1-6)]Man(b1-4)GlcNAc(b1-4)[Fuc(a1-6)]GlcNAc", "method_in_brief": "as §1"}, "[6]": {"target": "Fuc(a1-3)[Gal(b1-4)]GlcNAc(b1-3)Gal(b1-3)[Fuc(a1-4)]GlcNAc", "method_in_brief": "as §1"}, "[7]": {"target": "Fuc(a1-3)[Gal(b1-4)]GlcNAc(b1-3)Gal(b1-4)[Fuc(a1-3)]GlcNAc", "method_in_brief": "as §1"}, "[8]": {"target": "Fuc(a1-3)[Gal(b1-4)]GlcNAc(b1-3)Gal(b1-4)[Fuc(a1-3)]GlcNAc(b1-3)Gal(b1-4)[Fuc(a1-3)]GlcNAc", "method_in_brief": "as §1"}, "[9]": {"target": "Fuc(a1-3)[Gal(b1-4)]GlcNAc(b1-3)GalNAc", "method_in_brief": "as §1"}, "[10]": {"target": "Fuc(a1-3)[Gal(b1-4)]GlcNAc(b1-6)GalNAc", "method_in_brief": "as §1"}, "[11]": {"target": "Fuc(a1-3)[Gal(b1-4)]GlcNAc(b1-6)[Gal(b1-3)GlcNAc(b1-3)]Gal(b1-4)Glc", "method_in_brief": "as §1"}, "[12]": {"target": "Fuc(a1-3)[Gal(b1-4)]GlcNAc6S", "method_in_brief": "as §1"}, "[13]": {"target": "Fuc(a1-3)[Gal3S(b1-4)]Glc", "method_in_brief": "as §1"}, "[14]": {"target": "Fuc(a1-3)[Gal3S(b1-4)]GlcNAc", "method_in_brief": "as §1"}, "[15]": {"target": "Fuc(a1-3)[Gal3S(b1-4)]GlcNAc6S", "method_in_brief": "as §1"}, "[16]": {"target": "Fuc(a1-3)[GalNAc(b1-4)]GlcNAc", "method_in_brief": "as §1"}, "[17]": {"target": "Fuc(a1-3)[GalNAc(b1-4)]GlcNAc6S", "method_in_brief": "as §1"}, "Fuc(a1-4)GlcNAc": {"target": "Fuc(a1-4)GlcNAc", "method_in_brief": "as §1"}, "Fuc(b1-3)GlcNAc": {"target": "Fuc(b1-3)GlcNAc", "method_in_brief": "as §1"}, "Gal(a1-2)Gal": {"target": "Gal(a1-2)Gal", "method_in_brief": "as §1"}, "Gal(a1-3)Gal": {"target": "Gal(a1-3)Gal", "method_in_brief": "as §1"}, "Gal(a1-3)Gal(b1-3)GlcNAc": {"target": "Gal(a1-3)Gal(b1-3)GlcNAc", "method_in_brief": "as §1"}, "[18]": {"target": "Gal(a1-3)Gal(b1-3)GlcNAc(b1-2)Man", "method_in_brief": "as §1"}, "[19]": {"target": "Gal(a1-3)Gal(b1-3)GlcNAc(b1-2)Man(a1-3)[Gal(a1-3)Gal(b1-3)GlcNAc(b1-2)Man(a1-6)]Man(b1-4)GlcNAc(b1-4)GlcNAc", "method_in_brief": "as §1"}, "[20]": {"target": "Gal(a1-3)Gal(b1-3)GlcNAc(b1-3)GalNAc", "method_in_brief": "as §1"}, "[21]": {"target": "Gal(a1-3)Gal(b1-3)GlcNAc(b1-6)GalNAc", "method_in_brief": "as §1"}, "[22]": {"target": "Gal(a1-3)Gal(b1-3)[Fuc(a1-4)]GlcNAc(b1-2)Man(a1-3)[Gal(a1-3)Gal(b1-3)[Fuc(a1-4)]GlcNAc(b1-2)Man(a1-6)]Man(b1-4)GlcNAc(b1-4)GlcNAc", "method_in_brief": "as §1"}, "Gal(a1-3)Gal(b1-4)Glc": {"target": "Gal(a1-3)Gal(b1-4)Glc", "method_in_brief": "as §1"}, "Gal(a1-3)Gal(b1-4)GlcNAc": {"target": "Gal(a1-3)Gal(b1-4)GlcNAc", "method_in_brief": "as §1"}, "[23]": {"target": "Gal(a1-3)Gal(b1-4)GlcNAc(b1-2)Man", "method_in_brief": "as §1"}, "[24]": {"target": "Gal(a1-3)Gal(b1-4)GlcNAc(b1-2)Man(a1-3)[Gal(a1-3)Gal(b1-4)GlcNAc(b1-2)Man(a1-6)]Man(b1-4)GlcNAc(b1-4)GlcNAc", "method_in_brief": "as §1"}, "[25]": {"target": "Gal(a1-3)Gal(b1-4)GlcNAc(b1-3)GalNAc", "method_in_brief": "as §1"}, "[26]": {"target": "Gal(a1-3)Gal(b1-4)GlcNAc(b1-6)GalNAc", "method_in_brief": "as §1"}, "[27]": {"target": "Gal(a1-3)Gal(b1-4)[Fuc(a1-3)]GlcNAc", "method_in_brief": "as §1"}, "[28]": {"target": "Gal(a1-3)Gal(b1-4)[Fuc(a1-3)]GlcNAc(b1-2)Man(a1-3)[Gal(a1-3)Gal(b1-4)[Fuc(a1-3)]GlcNAc(b1-2)Man(a1-6)]Man(b1-4)GlcNAc(b1-4)GlcNAc", "method_in_brief": "as §1"}, "Gal(a1-3)GalNAc": {"target": "Gal(a1-3)GalNAc", "method_in_brief": "as §1"}}, "note": "The list shows a part of the results."}
{"binder": "B1", "values": [{"measurement": "glycan array binding signal (z-score)", "setting": "Fuc(a1-3)GlcNAc", "value": -0.254}, {"measurement": "glycan array binding signal (z-score)", "setting": "[1]", "value": 1.06}, {"measurement": "glycan array binding signal (z-score)", "setting": "[2]", "value": -0.452}, {"measurement": "glycan array binding signal (z-score)", "setting": "[3]", "value": 0.571}, {"measurement": "glycan array binding signal (z-score)", "setting": "[4]", "value": 1.25}, {"measurement": "glycan array binding signal (z-score)", "setting": "[5]", "value": 0.555}, {"measurement": "glycan array binding signal (z-score)", "setting": "[6]", "value": 0.052}, {"measurement": "glycan array binding signal (z-score)", "setting": "[7]", "value": 0.233}, {"measurement": "glycan array binding signal (z-score)", "setting": "[8]", "value": -0.451}, {"measurement": "glycan array binding signal (z-score)", "setting": "[9]", "value": -0.832}, {"measurement": "glycan array binding signal (z-score)", "setting": "[10]", "value": 0.867}, {"measurement": "glycan array binding signal (z-score)", "setting": "[11]", "value": -0.159}, {"measurement": "glycan array binding signal (z-score)", "setting": "[12]", "value": -0.065}, {"measurement": "glycan array binding signal (z-score)", "setting": "[13]", "value": 0.068}, {"measurement": "glycan array binding signal (z-score)", "setting": "[14]", "value": -0.287}, {"measurement": "glycan array binding signal (z-score)", "setting": "[15]", "value": -0.368}, {"measurement": "glycan array binding signal (z-score)", "setting": "[16]", "value": -0.859}, {"measurement": "glycan array binding signal (z-score)", "setting": "[17]", "value": -0.272}, {"measurement": "glycan array binding signal (z-score)", "setting": "Fuc(a1-4)GlcNAc", "value": -0.627}, {"measurement": "glycan array binding signal (z-score)", "setting": "Fuc(b1-3)GlcNAc", "value": 0.522}, {"measurement": "glycan array binding signal (z-score)", "setting": "Gal(a1-2)Gal", "value": -0.51}, {"measurement": "glycan array binding signal (z-score)", "setting": "Gal(a1-3)Gal", "value": -0.312}, {"measurement": "glycan array binding signal (z-score)", "setting": "Gal(a1-3)Gal(b1-3)GlcNAc", "value": -0.895}, {"measurement": "glycan array binding signal (z-score)", "setting": "[18]", "value": -0.295}, {"measurement": "glycan array binding signal (z-score)", "setting": "[19]", "value": 0.555}, {"measurement": "glycan array binding signal (z-score)", "setting": "[20]", "value": -0.113}, {"measurement": "glycan array binding signal (z-score)", "setting": "[21]", "value": -0.687}, {"measurement": "glycan array binding signal (z-score)", "setting": "[22]", "value": 0.537}, {"measurement": "glycan array binding signal (z-score)", "setting": "Gal(a1-3)Gal(b1-4)Glc", "value": 0.05}, {"measurement": "glycan array binding signal (z-score)", "setting": "Gal(a1-3)Gal(b1-4)GlcNAc", "value": 0.417}, {"measurement": "glycan array binding signal (z-score)", "setting": "[23]", "value": -0.638}, {"measurement": "glycan array binding signal (z-score)", "setting": "[24]", "value": 0.111}, {"measurement": "glycan array binding signal (z-score)", "setting": "[25]", "value": 0.216}, {"measurement": "glycan array binding signal (z-score)", "setting": "[26]", "value": -0.364}, {"measurement": "glycan array binding signal (z-score)", "setting": "[27]", "value": -0.762}, {"measurement": "glycan array binding signal (z-score)", "setting": "[28]", "value": 0.785}, {"measurement": "glycan array binding signal (z-score)", "setting": "Gal(a1-3)GalNAc", "value": -0.074}]}
